From PubChem BioAssay AID758 (NMMLSC, 2007)
Screen size: about 190,000 compounds; about 110 (0.058%) were called active. Inconclusive means that the source gave no clear call. Such entries were picked first, then a sample of the others.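 Rule for the calls: active = fluorescent GTP binding to Rab7 beads changed by at least 20 points from the 100% baseline, either direction, mostly lower; inconclusive = compound itself probably fluorescent, or too few beads counted; inactive = the rest.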

tested on: Rab7 GTPase wild type (dog), Bodipy-FL-GTP binding; assay: modulators of GTP binding to Rab7, primary screen, biochemical, wildtype, multiplex bead flow cytometry (AID 758); settings: GST-Rab7 beads, fluorescent GTP binding, at 10 µM, actives lie on both sides, untreated = 100%, excess cold GTP = 0%;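 note: median green fluorescence of bound Bodipy-FL-GTP per Rab7 bead population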

SMILES | GTP binding activity (percent of control)
CC(C)C1=NOC(C(=O)N2CCC(N3CCC(C(=O)N4CCOCC4)CC3)CC2)C1 (stereo not drawn) | inconclusive: 96%
O=C(O)CCc1ccc(-c2cccs2)n1Cc1ccco1 | inconclusive: 110%
CC1Cc2ccccc2N1C(=O)Cn1c(=O)oc2cc(S(=O)(=O)N3CCCCC3)ccc21 (stereo not drawn) | inactive: 101%
CN(C)c1ccc2c3c(ccc(N(C)C)c13)COC2 | inactive: 95%
CCOc1ccccc1NC(=O)CSc1nnc2ccc(-c3ccncc3)nn12 | inactive: 103%
COc1cc(/C=C/C(=O)OCC(=O)c2c(N)n(C)c(=O)n(C)c2=O)ccc1OCC#N | inactive: 92%
Cc1ccc(/C=N/NC(=O)c2ccc(C(=O)N/N=C/c3ccc(C)s3)o2)s1 | inconclusive: 96%
O=S(=O)(Nc1ncn[nH]1)c1ccc2ccccc2c1 | inactive: 112%
O=C(NC1CC1)C1CCN(C2CCN(C(=O)/C=C/c3cccs3)CC2)CC1 | inconclusive: 98%
CCOC(=O)c1cnn(-c2cc(Oc3ccccc3C)ncn2)c1N | inactive: 94%
Cc1cc(/C=C(/C#N)c2nc3ccccc3[nH]2)c(C)n1-c1cc(C(=O)O)cc(C(=O)O)c1 | inconclusive: 85%
O=C(NCCc1ccccc1)C(=O)N/N=C/c1ccccc1C(F)(F)F | inconclusive: 101%
CCN(CC)S(=O)(=O)c1cccc(-c2nnc(SCCOc3ccccc3C)o2)c1 | inconclusive: 94%
O=C(c1nn(Cc2ccccc2)c(=O)c2ccccc12)N1CCN(C/C=C/c2ccccc2)CC1 | inactive: 99%
O=C(CSc1ccc2nnc(-c3ccccc3)n2n1)N1CCCc2ccccc21 | inconclusive: 91%
Cc1[nH]nc2c1C(c1cccs1)C1=C(CC(C)(C)CC1=O)N2 (stereo not drawn) | inactive: 107%
CCCn1c(SCC(=O)Nc2cc(S(=O)(=O)N3CCOCC3)ccc2OC)n[nH]c1=O | inactive: 100%
C=CCN1C(=O)/C(=C2/Sc3ccccc3N2CCCS(=O)(=O)O)SC1=S | inconclusive: 86%
COc1ccc(C2SCCN2C(=S)Nc2ccc(Cl)cc2)cc1 (stereo not drawn) | inconclusive: 101%
O=C(Oc1cccc(O)c1)C1CCCCC1 | inconclusive: 93%
COCCn1c(N)c(C(=O)NCc2cccs2)c2nc3ccccc3nc21 | inconclusive: 85%
O=C(NCc1ccccc1)c1cc(=O)c2ccccc2o1 | inconclusive: 101%
COc1ccc(OC)c(CN2CCC(CNC(=O)Nc3cccc(Cl)c3)CC2)c1 | inconclusive: 98%
CCOc1ccccc1N1CCN(C(=O)Nc2ccc(Cl)c(Cl)c2)CC1 | inconclusive: 87%

SMILES | GTP binding activity (percent of control)
O=C(NCCc1ccc2c(c1)OCCO2)c1ccc([N+](=O)[O-])cc1Cl | inactive: 100%
COc1ccc(/C(N)=N/O)c(OC)c1 | inactive: 94%
COCCN1C(=O)/C(=C/c2ccc(N3CCCC3)cc2C)SC1=S | inconclusive: 150%
CCOC(=O)c1cc(-c2ccc(OC(F)F)cc2)nc2c1c(=O)[nH]c(=O)n2C | inactive: 95%
COc1ccc2oc(-c3ccc(C)c(NC(=O)c4ccc(N5CCOCC5)c([N+](=O)[O-])c4)c3)nc2c1 | inactive: 99%
Cc1cc(-c2ccccc2)c(C#N)c(N)n1 | inconclusive: 93%
CCCc1[nH]nc2c1C(c1ccc(OC)c(Cn3nnc4ccccc43)c1)C(C#N)=C(N)O2 (stereo not drawn) | inconclusive: 99%
Cc1ccc(N2C(=O)c3ccc(C(=O)N4CCN(c5cccc(C)c5C)CC4)cc3C2=O)cc1 | inactive: 98%
O=c1c(-c2ccco2)[n+]([O-])c2ccccc2n1OCc1ccccc1[N+](=O)[O-] | inconclusive: 103%
Cc1cc(N2C(=O)CC(Cc3ccc(Cl)cc3)C2=O)no1 (stereo not drawn) | inconclusive: 102%
CC1(C)CC(=O)C2=C(C1)OC(c1ccncc1)C(C#N)=C2N (stereo not drawn) | inconclusive: 100%
COc1ccc(C(=O)OCC(=O)Nc2nc3c(F)c(F)c(F)cc3s2)cc1OC | inactive: 102%
Cc1[nH][nH]c(=O)c1C(c1ccc(-c2ccc(Cl)c(C(=O)O)c2)o1)c1c(C)[nH][nH]c1=O | inconclusive: 91%
S=C(NCC1CCCO1)Nc1ccccc1 (stereo not drawn) | inconclusive: 98%
CCN(CC)CCCn1c(=S)[nH]c2cc(C(=O)OC)ccc2c1=O | inconclusive: 95%
S=C(NCc1ccco1)N1CCN(C/C=C/c2ccccc2)CC1 | inactive: 106%
Cc1c(Cl)cccc1N=Cc1ccc([N+](=O)[O-])s1 | inconclusive: 108%
N#C/C(=N\Nc1ccc(S(=O)(=O)N2CCc3ccccc32)cc1)C(N)=S | inconclusive: 105%
COc1ccc(Cl)cc1NC(=O)CN(C1CCCCC1)S(C)(=O)=O | inconclusive: 102%
COCC(C)n1c(=O)sc2ccccc2c1=O (stereo not drawn) | inactive: 98%
COc1ccc(-c2nnc(SCC(=O)NNC(=O)Cc3ccccc3)n2C)cc1OC | inconclusive: 102%
CC(C)CSc1nsc(N)n1 | inconclusive: 106%
Cc1cc(C)c(S(=O)(=O)Nc2cccc(S(=O)(=O)NC3=NCCC3)c2)c(C)c1 | inactive: 102%
N=c1c2c3c(sc2ncn1CCCO)CCCC3 | inconclusive: 102%

SMILES | GTP binding activity (percent of control)
COc1nc(-c2ccccc2)ccc1-c1noc(COc2ccccc2)n1 | inconclusive: 89%
O=C1N(c2ccccc2)C(c2ccc(Cl)cc2)N2CCCN12 (stereo not drawn) | inactive: 98%
O=C(Cn1cccc1C(=O)c1ccccc1)NCc1cccc(Cl)c1 | inactive: 93%
Cc1ccc(-n2c(SCC(N)=O)nnc2-c2cccnc2)c(C)c1 | inactive: 105%
CNS(=O)(=O)c1cc2c3c(cccc3c1)C(=O)NC2=O | inconclusive: 94%
Cc1nnc(SCC(=O)NCc2ccccc2)[nH]c1=O | inconclusive: 99%
CCc1nnc(NC(=O)CSc2nc(-c3ccccc3)cc(-c3ccc(OC)cc3)c2C#N)s1 | inactive: 101%
CCCCOC(=O)C1CCCC(C)N1 (stereo not drawn) | inconclusive: 104%
Cc1cccc(-c2nnc3n2N=C(c2ccccc2)CS3)c1 | inactive: 92%
COc1cc(/C=C2/C(=N)N3C=CSC3=NC2=O)ccc1OCCCOc1ccccc1C | inconclusive: 106%
CCOC(=O)NC(Nc1ccc(S(N)(=O)=O)cc1)(C(=O)OCC)C(F)(F)F (stereo not drawn) | inconclusive: 99%
Cc1cccc2c(CCNC(=O)c3ccc([N+](=O)[O-])cc3)c[nH]c12 | inconclusive: 97%
CCCNS(=O)(=O)c1ccc2c(c1)CCCN2C(C)=O | inconclusive: 102%
Cc1ccc(C(=O)C(OC(=O)CCC(=O)Nc2cccc(C)c2)c2ccccc2)cc1 (stereo not drawn) | inconclusive: 107%
CCCCn1c(N)c(N(CC)C(=O)C(c2ccccc2)c2ccccc2)c(=O)[nH]c1=O | inconclusive: 157%
O=C(CSc1nnc(-c2ccccc2)c(-c2ccccc2)n1)Nc1ncc(Cl)cc1Cl | inconclusive: 111%
O=C(CSc1ccc2nnc(-c3ccccn3)n2n1)Nc1ccc2c(c1)OCO2 | inconclusive: 82%
O=S(=O)(/N=C/N1CCOCC1)c1ccc(Cl)cc1 | inconclusive: 96%
COc1cc(-c2cc(=O)c3ccccc3o2)ccc1O | inactive: 97%
CCOc1[nH]n(-c2ccc(Cl)cc2)c(=O)c1C=Nc1ccc(O)cc1 | inconclusive: 103%
CCOC(=O)C1CCN(C(=O)c2ccco2)CC1 | inconclusive: 103%
Cn1c(SCc2nnc(-c3ccccc3)o2)nc2ccccc21 | inactive: 106%
COCCNC(=O)c1cc(C(=O)CC(C)C)c[nH]1 | inactive: 97%
Cc1ccccc1C(=O)Nc1nc(=S)ss1 | inconclusive: 89%

SMILES | GTP binding activity (percent of control)
CC(=O)c1ccc(N2CCN(C(=O)c3ccc4c(=O)n(-c5ccccc5)c(=O)[nH]c4c3)CC2)cc1 | inactive: 104%
O=C(Cn1cnc2cc([N+](=O)[O-])ccc2c1=O)NCc1ccc(Cl)cc1 | inactive: 91%
CC1(C)C(=O)Nc2ccccc2N1C(=O)COc1cccnc1[N+](=O)[O-] | inactive: 95%
NNC(=O)c1nc[nH]c1C(=O)Nc1ccccc1[N+](=O)[O-] | inconclusive: 84%
Cc1cccc(Nc2nc(NCc3ccco3)c3ccccc3n2)c1 | active: 79%
CCOc1ccc(-n2c(-c3ccco3)n[nH]c2=S)cc1 | inconclusive: 80%
Cc1cc(C(=O)CN2C(=O)NC3(CCC(C)CC3)C2=O)c(C)n1C (stereo not drawn) | inconclusive: 97%
N#C/C(=C(/O)COc1ccc(Br)cc1)c1nnc2n1CCCCC2 | inactive: 80%
Cc1cccc(N2CCN(C(=O)/C=C/c3cccs3)CC2C)c1 (stereo not drawn) | inconclusive: 88%
CCOC(=O)Cc1nnc(NC(=O)C(CC)Sc2nnc3c4ccccc4n(C)c3n2)s1 (stereo not drawn) | inconclusive: 96%
Cc1ccc(/C=C(\CCC(=O)O)c2nc3ccccc3s2)cc1[N+](=O)[O-] | inactive: 87%
Cn1c(N=Nc2ccc(N3CCOCC3)cc2)[n+](C)c2ccccc21 | inconclusive: 95%
CC12CCC(C(=O)NCc3ccc4c(c3)OCO4)(OC1=O)C2(C)C (stereo not drawn) | inactive: 104%
Cn1c(=O)cc(SCC(=O)N2CCN(C(=O)c3ccco3)CC2)c2ccccc21 | inconclusive: 105%
COc1ccc(N2CCC(CNC(=S)Nc3cccc(C)c3)C2)cc1 (stereo not drawn) | inconclusive: 100%
CC(C)NC(=O)/C=C/C(=O)O | inactive: 107%
CCc1ccc2nc(N)sc2c1 | inconclusive: 104%
COc1cc(/C=N/Nc2ccc(S(N)(=O)=O)cc2)cc(OC)c1OC | inactive: 98%
CCn1c(NCc2cccs2)nc2ccccc21 | inactive: 97%
O=C(CCCO)c1ccc2c(c1)OCCO2 | inconclusive: 91%
O=C(Nc1ccc2c(c1)nc1n2CCSC1)c1ccco1 | inconclusive: 92%
